This passage reports AC50 results from PubChem BioAssay AID493014 (National Center for Advancing Translational Sciences (NCATS), 2011).

The list shows a part of the results. The main result of the screen is listed elsewhere. These columns were measured beside it and carry no call. The list favours compounds with an active or inconclusive main result. Words in brackets tell the shape of the fitted curve; partial curves, single points and poor fits give uncertain potencies.

The assay is described as follows: qHTS Assay to Find Inhibitors of Chronic Active B-Cell Receptor Signaling. The note with it: ABC-DLBCL IkBa-CBG/CBR reporter, luminescence ratio (green luciferase fused to IkBa over red control in TMD8 lymphoma cells), 4 h. An outline of the steps:
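TMD8 ABC-DLBCL cells carrying doxycycline-inducible green luciferase fused to IkappaBalpha plus unfused red luciferase were exposed to compounds (up to 46 uM) for 4 hrs at 37C. Activity came from the overlap-corrected green/red luminescence ratio.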
Background: Quantitative high-throughput screening tests each substance at several concentrations.

Setting [1] is: measured here: CBR red luminescence, cell number.
The mark [2] stands for this setting: measured here: IkBa-CBG green luminescence.

A word on the AC50: it is the midpoint of the concentration-response curve, whichever way the signal moves.

For the compound `CCCCNC(=S)N=Nc1c(O)[nH]c2ccccc12`, the AC50 is 35.5 µM [falling, single point] under setting [1] and 15.8 µM [falling, partial curve] under setting [2].
For the compound `COc1cc(OC)c(C2C(C#N)=C(N)Oc3cc(C)n(CCCN4CCOCC4)c(=O)c32)cc1OC` (centres undefined), the AC50 under setting [1] is 10 µM [falling, partial curve].
Same read-out and setting: the value for `Fc1ccc(NC(=S)Nc2ccc(Br)cc2)cc1` was 0.92 µM [rising, full curve, poor fit]; that for `COc1ccc(NC(=O)C2CCCN(S(=O)(=O)c3cccc4nonc34)C2)cc1` (centres undefined) was 5.17 µM [falling, partial curve, poor fit].
For the compound `CSC(=S)N/N=C/c1ccc(Br)cc1`, under setting [1], the concentration at half-maximal activity (AC50) is 11.2 µM [rising, partial curve, poor fit].
`O=C(CNC(=O)c1ccccc1F)OCc1csc(-c2ccccc2)n1`: the half-maximal activity concentration (AC50) under setting [1] is 22.4 µM [rising, partial curve, poor fit].
With `NC(=S)N/N=C/c1ccc(-c2cccc([N+](=O)[O-])c2)o1`, the AC50 under setting [2] is 22.4 µM [falling, single point].
`COc1ccc(-c2cc(C(=O)Nc3c(C)nn(Cc4ccc(Cl)cc4)c3C)no2)cc1`: the AC50 under setting [1] was 16.4 µM [rising, partial curve, poor fit].
On the same count and under the same terms, the value for `CCCCNc1c(-c2cccc(-c3ccc(OC)cc3)c2)nc2cc(C)ccn12` was 29.1 µM [falling, single point].
On to `Cc1ccccc1NC(=O)c1nc(S(C)(=O)=O)ncc1Cl`, for which the AC50 was 20 µM [falling, single point] under setting [1] and 11.2 µM [rising, partial curve, poor fit] under setting [2].
Regarding `O=c1nc(C(F)(F)F)nc2ccccn12`, under setting [1], the concentration at half-maximal activity (AC50) was 29.1 µM [falling, single point].
As to `COc1ccc(S(=O)(=O)N(Cc2cc3cc(C)ccc3[nH]c2=O)CC2CCCO2)cc1` (centres undefined), the AC50 under setting [1] is 1.64 µM [rising, partial curve, poor fit].
Turning to `Cc1cccc(/C(N)=N/OC(=O)N2CCOCC2)c1`, under setting [2], the AC50 is 25.1 µM [falling, partial curve, poor fit].
As to `CC(C)c1ccccc1NC(=O)COC(=O)CCN1C(=O)/C(=C\C=C\c2ccccc2)SC1=S`, the AC50 under setting [1] was 0.0651 µM [falling, full curve].
With `CC(=O)c1c(C)nc2ccc(Cl)cn12`, the AC50 under setting [1] is 3.26 µM [falling, single point].
Regarding `O=C(COc1ccc2c3c(c(=O)oc2c1)CCC3)NCc1ccccn1`, the AC50 under setting [1] is 35.5 µM [rising, single point].
Same read-out and setting: the result for `COc1cccc(NC(=O)C2CCC(CNS(=O)(=O)c3ccc4c(c3)CC(C)N4C(C)=O)CC2)c1` (centres undefined) reads 35.5 µM [falling, partial curve, poor fit]; that for `Cc1cc(C)n2nc(CNS(=O)(=O)c3c(F)c(F)c(F)c(F)c3F)nc2n1`, 35.5 µM [falling, single point]; that for `O=C(Cc1ccccc1)c1c[nH]c(C(=O)O)c1`, 10 µM [falling, partial curve, poor fit].
Turning to `COc1cc(OC)cc(-c2c(C#Cc3ccsc3)c3cc(Br)ccc3n2C)c1`, the AC50 under setting [1] is 4.11 µM [falling, full curve].
The same measure, in the same setting: the value for `Cc1nc(SC2CC(=O)N(c3ccccc3)C2=O)n[nH]1` (centres undefined) was 15.8 µM [falling, single point]; that for `Cc1cccc([N+](=O)[O-])c1NC(=O)CSc1nnc2ccccn12` was 6.51 µM [falling, partial curve, poor fit]; that for `Cn1c(CCN2CCN(c3ccccn3)CC2)nc2cc(NC(=O)COc3ccccc3)ccc21` was 11.2 µM [falling, single point].
The same measure, in the same setting: the value for `O=C(O)c1ccc(N2C(=O)Nc3ccccc3N2O)cc1` was 35.5 µM [falling, single point]; that for `O=C(Nc1ccccc1N1CCN(c2ccc(F)cc2)CC1)c1ccccc1` was 1.3 µM [rising, full curve].
As to `COc1ccc(OCCn2cnc(Cl)c2Cl)cc1`, the AC50 under setting [1] is 14.1 µM [rising, partial curve, poor fit].
Still for that read-out and setting: the value for `CS(=O)(=O)c1ccc2nc(NC(=O)c3cccc(Cl)c3)sc2c1` was 2.82 µM [falling, partial curve]; that for `Nc1cc(N)nc(SCCc2ccccc2)n1` was 35.5 µM [falling, single point].
As for `O=C1C(Cc2ccccc2)NC(=S)N1c1ccccc1` (centres undefined), the AC50 under setting [1] is 31.6 µM [falling, single point].
As to `COc1ccc(-c2noc(Cc3ccc(Cl)cc3)n2)cc1OC`, the AC50 under setting [1] was 29.1 µM [rising, single point].
Take `CC1(C)N=c2ccc([N+](=O)[O-])c(N)c2=[N+]1[O-]`: the AC50 reads like this: under setting [1], 11.2 µM [rising, partial curve]; under setting [2], 35.5 µM [falling, partial curve, poor fit].
Take `CC(=O)N1CCc2c(sc(NC(=O)C3CCN(S(=O)(=O)c4cccs4)CC3)c2C(N)=O)C1`: the half-maximal activity concentration (AC50) under setting [1] was 14.6 µM [rising, partial curve, poor fit] and the AC50 under setting [2] was 23.1 µM [falling, partial curve, poor fit].
In the case of `Cc1nc([N+](=O)[O-])c(Br)n1Cc1ccc(Cl)c(Cl)c1`, the AC50 is, setting by setting: under setting [1], 22.4 µM [falling, single point]; under setting [2], 3.55 µM [rising, partial curve, poor fit].
Take `Cc1ccccc1-c1nc(-c2ccc(Br)o2)no1`: under setting [1], the AC50 was 3.16 µM [rising, single point].
The same measure, in the same setting: the result for `Cc1ccc(NC(=O)c2cc([N+](=O)[O-])ccc2N2CCOCC2)cc1C` reads 15.8 µM [falling, single point]; that for `Cc1cnnn1-c1ccc([N+](=O)[O-])cc1`, 17.8 µM [rising, partial curve, poor fit].
The same measure, in the same setting: the value for `O=C(CN1CCN(CC(=O)Nc2ccccc2F)CC1)Nc1ccc2c(c1)OCCO2` was 17.8 µM [falling, single point]; that for `CN(CC(=O)Nc1nc2ccccc2s1)S(=O)(=O)c1ccccc1` was 5.17 µM [falling, full curve]; that for `COc1cc(C2C(C#N)=C(N)OC3=C2C(=O)CCC3)ccc1OC(=O)N1CCOCC1` (centres undefined) was 7.31 µM [rising, partial curve, poor fit].
